Results taken from PMC10781749.
Results are given in words; binding and its absence hold for the method and conditions named. In cells and extracts the contact can be indirect. These calls come from enrichment with a bait or labelling near it, and not all partners need be listed.

The chains behind the UniProt entries cited, without tags or fusion partners. Where a name states a change or a piece, a line headed by the entry shows the natural chain unless it says otherwise.
UniProt Q5LDU9: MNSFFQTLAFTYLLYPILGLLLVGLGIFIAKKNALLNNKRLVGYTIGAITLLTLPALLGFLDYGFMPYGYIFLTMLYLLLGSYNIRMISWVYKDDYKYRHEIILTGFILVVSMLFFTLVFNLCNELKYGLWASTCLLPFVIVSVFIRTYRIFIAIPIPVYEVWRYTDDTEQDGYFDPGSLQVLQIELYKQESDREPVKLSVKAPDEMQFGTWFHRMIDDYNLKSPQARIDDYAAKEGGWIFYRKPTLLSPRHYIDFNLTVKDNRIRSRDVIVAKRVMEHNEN
UniProt Q5LDV3: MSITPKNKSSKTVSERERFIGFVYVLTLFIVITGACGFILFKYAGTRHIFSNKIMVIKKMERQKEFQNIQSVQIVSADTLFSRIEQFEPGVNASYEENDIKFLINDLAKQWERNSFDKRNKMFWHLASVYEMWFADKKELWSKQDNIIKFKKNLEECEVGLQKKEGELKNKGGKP
UniProt Q5LDV2: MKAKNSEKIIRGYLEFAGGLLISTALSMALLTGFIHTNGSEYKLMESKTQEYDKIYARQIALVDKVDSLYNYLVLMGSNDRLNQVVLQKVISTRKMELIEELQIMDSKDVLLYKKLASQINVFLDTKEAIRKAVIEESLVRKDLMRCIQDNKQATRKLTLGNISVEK

Tests used:
[1] = molecular target: TssN^STREP (tssN tagged at its native locus in B. fragilis NCTC 9343) (Bacteroides fragilis NCTC 9343) (UniProt Q5LDU9); experiment: affinity purification with mass spectrometry; B. fragilis NCTC 9343 with TssN^STREP and ^HISTssO at native loci; total membranes solubilised with detergents; two-step affinity chromatography; elution analysed by LC-MS/MS of excised gel bands, two biological replicates
[2] = molecular target: ^HISTssO (tssO tagged at its native locus in B. fragilis NCTC 9343) (Bacteroides fragilis NCTC 9343) (UniProt Q5LDV3); experiment: as above

TssQ (endogenous, B. fragilis) (from UniProt Q5LDV2)
binding [1]: binds | binding [2]: binds
